This is an account of results in PubChem BioAssay AID322 (DTP/NCI, 2004).

The list does not hold the whole screen: it gathers tests that were run many times, whatever their T/C, doses with no T/C, and many T/C values between a quarter and a half above the control. Further doses and runs are listed elsewhere. T/C gives the treated animals as a percentage of the vehicle group. Some entries give survivors of the animals treated and no T/C: the source files T/C as zero there, which appears to mark a toxic dose or a test without result, not a measured value. Some survivor counts are full or nearly so, which does not show that the dose was tolerated: the source hardly ever lists a survival T/C far under the control, and the zero likely stands for such cases as well. Counts of survivors are from the toxicity check (mostly the fifth day) where no day follows; animals may have died later. Schedule codes are those of the source, taken here to give the interval after Q, in days (D) or hours (H), and the number of doses after X. Some entries hold several experiments; the values are given in rising order. Where survival is the endpoint, this PubChem deposit counts one and a half times the control or more as active, and values a quarter to a half above the control carry no call in these data; other NCI protocols may use other cut-offs. Some T/C values are followed by the survivors on the day toxicity was checked, most often the fifth; where none is given, no animal had died by that day. *1 amine or outer side, *2 acyl side, *3 side chain or, on linkers, in order; H or OH if unused. Where a SMILES comes first, the peptide text is derived from it. Bridges are numbered along the chain shown (N, C = ends). Roman numbers before positions name the chains, in order. [ ]: non-standard residue; d: D form. Actinocin(9to1) = Cc1c2oc3c(C)ccc(C(=O)[*:1])c3nc-2c(C(=O)[*:2])c(N)c1=O; aThr = C[C@H](O)[C@H](N)C(=O)O; NMeV = CN[C@H](C(=O)O)C(C)C; Sar = CNCC(=O)O

The test deals with CD2F1 mice, P388/ADR leukemia ip, median survival T/C. Briefly: NCI In Vivo Anticancer Drug Screen. Data for tumor model P388 Leukemia resistant to Adriamycin; NSC 123127, Developed at Scr 08 (intraperitoneal) in CD2F1 (CDF1) mice. The settings on record: T/C endpoint: median survival time, higher T/C = longer survival. As to the method: The antitumor activity of compounds was measured in mice bearing transplantable tumors. Survival or tumor size were measured and the results are expressed as the measurement made in the treated group (T) divided by the measurement made in the vehicle treated control group (C). The tumor model used in this assay is P388 Leukemia resistant to Adriamycin; NSC 123127, Developed at Scr 08 (intraperitoneal) in CD2F1 (CDF1) mice

Where [1] appears, read: dose: 100.0 mg/kg/injection, schedule: Q01DX005 (ip), vehicle: saline with Tween-80.
The mark [2] stands for this setting: dose: 200.0 mg/kg/injection, schedule: Q01DX005 (ip), vehicle: saline with Tween-80.
Where [3] appears, read: dose: 1111.11 mg/kg/injection, schedule: Q01DX005 (ip), vehicle: saline with Tween-80.

`CSC1SCC2C(=O)N(C)C(C(C)C)C(=O)OCC(NC(=O)c3cnc4ccccc4n3)C(=O)NC(C)C(=O)N(C)C1C(=O)N(C)C(C(C)C)C(=O)OCC(NC(=O)c1cnc3ccccc3n1)C(=O)NC(C)C(=O)N2C` (stereo not given): the T/C (dose: 67.0 micrograms/kg/injection, schedule: Q01DX005 (ip), vehicle: saline) is 149 % of control [9 of 10 alive].

`COC1CC2C=C(C)/C=C/C=C/C(=O)NC(c3ccccc3)C/C=C/CCC(O)CC(=O)C2=C1O` (stereo not given): the survivor count is, setting by setting: (dose: 12.5 mg/kg/injection, schedule: Q01DX005 (ip), vehicle: Klucel (hydroxypropylcellulose) (HPC)) 10 of 10; (dose: 25.0 mg/kg/injection, schedule: Q01DX005 (ip), vehicle: Klucel (hydroxypropylcellulose) (HPC)) 3 of 10; (dose: 50.0 mg/kg/injection, schedule: Q01DX005 (ip), vehicle: Klucel (hydroxypropylcellulose) (HPC)) 1 of 10.

As for `COc1cc(NCc2ccc3nc(N)nc(N)c3c2C)cc(OC)c1OC`, the T/C was 135 % of control (dose: 27.0 mg/kg/injection, schedule: Q01DX009 (ip), vehicle: distilled water + Tween-80); 130 % of control (dose: 40.0 mg/kg/injection, schedule: Q01DX009 (ip), vehicle: distilled water + Tween-80); 146 % of control (dose: 60.0 mg/kg/injection, schedule: Q01DX009 (ip), vehicle: distilled water + Tween-80).

Turning to `CO[C@@]12[C@H](COC(N)=O)C3=C(C(=O)C(C)=C(N)C3=O)N1C[C@@H]1N[C@@H]12`, the T/C by setting is: (dose: 0.25 mg/kg/injection, schedule: Q01DX009 (ip), vehicle: saline with Tween-80) 145 and 149 % of control; (dose: 8.0 mg/kg/injection, schedule: Q01DX001 (ip), vehicle: saline) 139 % of control; (dose: 8.0 mg/kg/injection, schedule: Q01DX001 (ip), vehicle: water) 127 % of control. Moreover, the survivor count (dose: 4.0 mg/kg/injection, schedule: Q01DX009 (ip), vehicle: saline with Tween-80) is reported as 10 of 10.

As to `N=C(N)c1ccc(N=NNc2ccc(C(=N)N)cc2)cc1`, the survivor count is, setting by setting: under setting [1], 0 of 10; under setting [2], 0 of 10.

On to `NC(N)=NS(=O)(=O)c1ccc(NCc2c3ccccc3nc3ccccc23)cc1`, for which the survivor count (dose: 800.0 mg/kg/injection, schedule: Q04DX003 (ip), vehicle: Klucel (hydroxypropylcellulose) (HPC)) is reported as 10 of 10.

Consider `COc1cccc2c1C(=O)c1c(O)c3c(c(O)c1C2=O)CC(O)(C(=O)CO)CC3OC1CC(N)C(I)C(C)O1` (stereo not given), for which the T/C (dose: 7.5 mg/kg/injection, schedule: Q01DX001 (ip), vehicle: saline) is 128 % of control; the T/C (dose: 11.2 mg/kg/injection, schedule: Q01DX001 (ip), vehicle: saline, evaluated on day 30) is 144 % of control; the T/C (dose: 11.2 mg/kg/injection, schedule: Q01DX001 (ip), vehicle: saline, evaluated on day 60) is 141 % of control; the T/C (dose: 16.8 mg/kg/injection, schedule: Q01DX001 (ip), vehicle: saline) is 137 % of control.

Take `Cc1c2oc3c(C)ccc(C(=O)N[C@@H]4C(=O)N[C@H](C(C)C)C(=O)N5CCC[C@H]5C(=O)N(C)CC(=O)N(C)[C@@H](C(C)C)C(=O)O[C@H]4C)c3nc-2c(C(=O)N[C@@H]2C(=O)N[C@H](C(C)C)C(=O)N3CCC[C@H]3C(=O)N(C)CC(=O)N(C)[C@@H](C(C)C)C(=O)O[C@H]2C)c(N)c1=O` (I: [aThr][dV]P[Sar][NMeV] / II: [aThr][dV]P[Sar][NMeV]; ester I:1-I:C, II:1-II:C; linker I:N-II:N via Actinocin(9to1)): the T/C is, setting by setting: (dose: 6.25 micrograms/kg/injection, schedule: Q01DX005 (ip), vehicle: saline + alcohol) 133 % of control; (dose: 12.5 micrograms/kg/injection, schedule: Q01DX005 (ip), vehicle: saline + alcohol) 137 % of control.

On to `N[C@@H](Cc1ccc(N(CCCl)CCCl)cc1)C(=O)O`, for which the survivor count (dose: 8.0 mg/kg/injection, schedule: Q01DX005 (ip), vehicle: saline) was 9 of 10.

For the compound `O=C(O)c1cc(C(=O)O)c(C(=O)O)cc1C(=O)O.[NH2-].[NH2-].[NH2-].[NH2-].[Pt+2].[Pt+2]`, the T/C is 140 % of control (dose: 6.25 mg/kg/injection, schedule: Q01DX005 (ip), vehicle: saline); 134 % of control (dose: 9.0 mg/kg/injection, schedule: Q01DX005 (ip), vehicle: suspension in saline); 142 % of control (dose: 12.5 mg/kg/injection, schedule: Q01DX005 (ip), vehicle: saline); 129 % of control (dose: 15.0 mg/kg/injection, schedule: Q01DX005 (ip), vehicle: suspension in saline). For the same compound, the survivor count is listed as 4 of 6 (dose: 50.0 mg/kg/injection, schedule: Q01DX005 (ip), vehicle: saline) and 5 of 10 (dose: 69.44 mg/kg/injection, schedule: Q01DX005 (ip), vehicle: suspension in saline).

On to `CCOc1ccc(-c2nc3ccc(-c4nc5ccc(N6CCN(C)CC6)cc5[nH]4)cc3[nH]2)cc1`, for which the survivor count (dose: 25.0 mg/kg/injection, schedule: Q01DX005 (ip), vehicle: water) was 9 of 10.

With `C[C@H](N)C(=O)N[C@@H]1[C@H]2C(=C(O)C[C@@H](O)[C@@H]2O)C(=O)O[C@@H]1C`, the survivor count (dose: 2400.0 mg/kg/injection, schedule: Q01DX005 (ip), vehicle: saline) is 1 of 10 and 7 of 10.

As to `BrC[P+](CBr)(CBr)CBr`, the T/C by setting is: under setting [1], 125 % of control; (dose: 144.0 mg/kg/injection, schedule: Q01DX005 (ip), vehicle: saline with Tween-80) 126 % of control; under setting [2], 128 and 132 % of control; (dose: 240.0 mg/kg/injection, schedule: Q01DX005 (ip), vehicle: saline with Tween-80) 134 % of control; (dose: 400.0 mg/kg/injection, schedule: Q01DX005 (ip), vehicle: saline with Tween-80) 126 [8 of 10 alive], 127 [9 of 10 alive], 132 [8 of 10 alive], 170 % of control; under setting [3], 133 % of control [8 of 10 alive]. Further, the survivor count is 3 of 10 (dose: 666.67 mg/kg/injection, schedule: Q01DX005 (ip), vehicle: saline with Tween-80); 0 of 10 and 3 of 10 (dose: 800.0 mg/kg/injection, schedule: Q01DX005 (ip), vehicle: saline with Tween-80); 0 of 10 under setting [3].

`O=C1CN(CCN2CC(=O)N(CN3CCOCC3)C(=O)C2)CC(=O)N1CN1CCOCC1`: the survivor count (dose: 200.0 mg/kg/injection, schedule: Q01DX005 (ip), vehicle: water) is recorded as 6 of 10.

Consider `CN(C)/N=N/c1nc[nH]c1C(N)=O`, for which the T/C runs as follows: (dose: 25.0 mg/kg/injection, schedule: Q01DX009 (ip), vehicle: distilled water + Tween-80) 131 % of control; (dose: 50.0 mg/kg/injection, schedule: Q01DX009 (ip), vehicle: distilled water + Tween-80) 131 % of control; (dose: 100.0 mg/kg/injection, schedule: Q01DX009 (ip), vehicle: distilled water + Tween-80) 131 % of control.

For the compound `[CH3][Sn]([CH3])([Cl])[c]1cc[c]([Sn]([CH3])([CH3])[Cl])cc1`, under “dose: 3.12 mg/kg/injection, schedule: Q01DX005 (ip), vehicle: suspension in saline”, the survivor count is on record as 0 of 10.

Turning to `Nc1ccc2c(c1)CN1C(=O)c3ccccc3C1=N2`, the T/C reads like this: (dose: 112.0 mg/kg/injection, schedule: Q01DX009 (ip), vehicle: saline with Tween-80, evaluated on day 30) 131 % of control; (dose: 112.0 mg/kg/injection, schedule: Q01DX009 (ip), vehicle: saline with Tween-80, evaluated on day 60) 135 % of control.
